Measured values: PMC2211464
These are yes or no findings as the source states them, for the method shown. Binding seen in cells or lysates may run through a third protein. Binding calls can cover weak binding; strength is not graded here.

Amino acid sequences for entries named in this document (tags omitted). A change or cut given only in a name is not applied to a line headed by its entry.
UniProt P63330: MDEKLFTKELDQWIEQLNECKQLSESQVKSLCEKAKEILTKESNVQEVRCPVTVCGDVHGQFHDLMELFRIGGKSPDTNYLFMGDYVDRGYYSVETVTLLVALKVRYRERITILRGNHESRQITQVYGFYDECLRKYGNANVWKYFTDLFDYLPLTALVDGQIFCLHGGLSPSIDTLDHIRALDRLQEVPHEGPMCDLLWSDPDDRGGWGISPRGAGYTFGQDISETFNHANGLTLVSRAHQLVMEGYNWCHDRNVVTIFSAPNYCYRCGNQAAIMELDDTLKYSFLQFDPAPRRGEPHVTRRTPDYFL

Target: GST fusion protein of PP2A C-subunit (UniProt P63330)
Assay: pull-down; GST-PP2A C-subunit or GST alone immobilised on glutathione agarose; incubated 1 hr with cell extracts (2 mg) of Rfz1-expressing F9 cells; washed with PBS with 0.5% NP-40; blot with anti-Dvl2; only the target purified

B1: Dishevelled-2 (protein, UniProt Q60838 1-736)
chain: MAGSSAGGGGVGETKVIYHLDEEETPYLVKIPVPAERITLGDFKSVLQRPAGAKYFFKSMDQDFGVVKEEISDDNARLPCFNGRVVSWLVSSDTPQPEVAPPAHESRTELVPPPPPLPPLPPERTSGIGDSRPPSFHPNVSSSHENLEPETETESVVSLRRDRPRRRDSSEHGAGGHRPGGPSRLERHLAGYESSSTLMTSELESTSLGDSDEDDTMSRFSSSTEQSSASRLLKRHRRRRKQRPPRMERTSSFSSVTDSTMSLNIITVTLNMEKYNFLGISIVGQSNERGDGGIYIGSIMKGGAVAADGRIEPGDMLLQVNDMNFENMSNDDAVRVLRDIVHKPGPIVLTVAKCWDPSPQAYFTLPRNEPIQPIDPAAWVSHSAALTGAFPAYPGSSSMSTITSGSSLPDGCEGRGLSVHMDMASVTKAMAAPESGLEVRDRMWLKITIPNAFLGSDVVDWLYHHVEGFPERREARKYASGLLKAGLIRHTVNKITFSEQCYYVFGDLSGGCESYLVNLSLNDNDGSSGASDQDTLAPLPGATPWPLLPTFSYQYPAPHPYSPQPPPYHELSSYTYGGGSASSQHSEGSRSSGSTRSDGGAGRTGRPEERAPESKSGSGSESELSSRGGSLRRGGEPGGTGDGGPPPSRGSTGAPPNLRALPGLHPYGAPSGMALPYNPMMVVMMPPPPPPVSTAVQPPGAPPVRDLGSVPPELTASRQSFHMAMGNPSEFFVDVM
For B1, the binding was “binds”.
